Source: patent US9145346B1, “Process for 2,2,4,4-tetramethylcyclobutane-1,3-diol crystallization” (Eastman Chemical Company, priority 2014, dated 2015)
Further values from the same series stand in other lists.

Assay: Solubility (saturated concentration) of cis-TMCD and trans-TMCD in various solvents, by gas chromatography
Type: physicochemical
Method: All concentrations were measured by gas chromatography. Water concentration was measured by Karl Fischer titrations.
The solubility of cis-TMCD and trans-TMCD in various solvents was determined by charging cis-TMCD, trans-TMCD, and the solvent or solvents of interest into a 120 ml jacketed glass vessel. The vessel was equipped with a stir bar in order to provide mixing and the jacket was used to control the temperature of the vessel contents. The vessel was equipped with charging and sampling ports on top of the vessel.
The slurry was allowed to stand for a time sufficient for the solids to saturate the solvent at the desired temperature. At that time, a sample of the solution was withdrawn from the cell using a fritted pipette so as to remove only the liquid phase. The sample was analyzed for cis-TMCD and trans-TMCD isomer content. These values represent the saturated concentration of each isomer at the sampling temperature.
After this, the cell contents were heated to the next desired temperature and the contents were held for another time interval sufficient to allow the slurry to equilibrate. A sample was then taken of the solution and analyzed. Following this procedure, solubility data was collected up to the final desired temperature.
The reported solubility of each isomer at a given temperature for a given solvent is expressed as a weight % relative to the saturated concentration of the isomer at the highest temperature reported for a given solvent.

## CC1(C)[C@H](O)C(C)(C)[C@H]1O [trans-TMCD, trans-2,2,4,4-tetramethylcyclobutane-1,3-diol]
Acetone, 6.2° C., relative to 54.7° C.
  Relative solubility: 27% relative wt %
Acetone, 16.3° C., relative to 54.7° C.
  Relative solubility: 36% relative wt %
Acetone, 25.7° C., relative to 54.7° C.
  Relative solubility: 50% relative wt %
Acetone, 40.5° C., relative to 54.7° C.
  Relative solubility: 72% relative wt %
Acetone, 54.7° C., relative to 54.7° C.
  Relative solubility: 100% relative wt %
Benzene, 5.6° C., relative to 70.1° C.
  Relative solubility: 3% relative wt %
Benzene, 12.7° C., relative to 70.1° C.
  Relative solubility: 3% relative wt %
Benzene, 21.2° C., relative to 70.1° C.
  Relative solubility: 6% relative wt %
Benzene, 30.9° C., relative to 70.1° C.
  Relative solubility: 10% relative wt %
Benzene, 40.5° C., relative to 70.1° C.
  Relative solubility: 17% relative wt %
Benzene, 50.3° C., relative to 70.1° C.
  Relative solubility: 31% relative wt %
Benzene, 61.4° C., relative to 70.1° C.
  Relative solubility: 60% relative wt %
Benzene, 70.1° C., relative to 70.1° C.
  Relative solubility: 100% relative wt %
CHDM, 59.5° C., relative to 106.9° C.
  Relative solubility: 45% relative wt %
DIBK, 6.2° C., relative to 94.4° C.
  Relative solubility: 5% relative wt %
DIBK, 13.3° C., relative to 94.4° C.
  Relative solubility: 7% relative wt %
DIBK, 25.2° C., relative to 94.4° C.
  Relative solubility: 10% relative wt %
DIBK, 35.1° C., relative to 94.4° C.
  Relative solubility: 13% relative wt %
DIBK, 44.1° C., relative to 94.4° C.
  Relative solubility: 18% relative wt %
DIBK, 61.7° C., relative to 94.4° C.
  Relative solubility: 29% relative wt %
DIBK, 71.0° C., relative to 94.4° C.
  Relative solubility: 47% relative wt %
DIBK, 93.9° C., relative to 94.4° C.
  Relative solubility: 95% relative wt %
DIBK, 94.4° C., relative to 94.4° C.
  Relative solubility: 100% relative wt %
Ethylene Glycol, 16.5° C., relative to 91.4° C.
  Relative solubility: 14% relative wt %
Ethylene Glycol, 91.4° C., relative to 91.4° C.
  Relative solubility: 100% relative wt %
MIBK, 15.8° C., relative to 80.5° C.
  Relative solubility: 21% relative wt %
MIBK, 26.0° C., relative to 80.5° C.
  Relative solubility: 29% relative wt %
MIBK, 35.5° C., relative to 80.5° C.
  Relative solubility: 38% relative wt %
MIBK, 50.5° C., relative to 80.5° C.
  Relative solubility: 57% relative wt %
MIBK, 61.3° C., relative to 80.5° C.
  Relative solubility: 69% relative wt %
MIBK, 70.8° C., relative to 80.5° C.
  Relative solubility: 83% relative wt %
MIBK, 80.5° C., relative to 80.5° C.
  Relative solubility: 100% relative wt %
Toluene, 15.0° C., relative to 99.7° C.
  Relative solubility: 1% relative wt %
Toluene, 26.2° C., relative to 99.7° C.
  Relative solubility: 2% relative wt %
Toluene, 40.5° C., relative to 99.7° C.
  Relative solubility: 4% relative wt %
Toluene, 54.9° C., relative to 99.7° C.
  Relative solubility: 8% relative wt %
Toluene, 69.8° C., relative to 99.7° C.
  Relative solubility: 16% relative wt %
Toluene, 80.2° C., relative to 99.7° C.
  Relative solubility: 26% relative wt %
Toluene, 89.8° C., relative to 99.7° C.
  Relative solubility: 42% relative wt %
Toluene, 99.7° C., relative to 99.7° C.
  Relative solubility: 100% relative wt %
Water, 6.2° C., relative to 79.3° C.
  Relative solubility: 38% relative wt %
Water, 16.3° C., relative to 79.3° C.
  Relative solubility: 38% relative wt %
Water, 25.7° C., relative to 79.3° C.
  Relative solubility: 35% relative wt %
Water, 40.5° C., relative to 79.3° C.
  Relative solubility: 39% relative wt %
Water, 54.7° C., relative to 79.3° C.
  Relative solubility: 50% relative wt %
Water, 70.1° C., relative to 79.3° C.
  Relative solubility: 73% relative wt %
Water, 79.3° C., relative to 79.3° C.
  Relative solubility: 100% relative wt %
Xylenes, 4.2° C., relative to 99.7° C.
  Relative solubility: 0% relative wt %
Xylenes, 15.0° C., relative to 99.7° C.
  Relative solubility: 1% relative wt %
Xylenes, 26.2° C., relative to 99.7° C.
  Relative solubility: 2% relative wt %
Xylenes, 40.5° C., relative to 99.7° C.
  Relative solubility: 4% relative wt %
Xylenes, 54.9° C., relative to 99.7° C.
  Relative solubility: 8% relative wt %
Xylenes, 69.8° C., relative to 99.7° C.
  Relative solubility: 16% relative wt %
Xylenes, 80.2° C., relative to 99.7° C.
  Relative solubility: 27% relative wt %
Xylenes, 99.7° C., relative to 99.7° C.
  Relative solubility: 100% relative wt %
Xylenes, −5.1° C., relative to 99.7° C.
  Relative solubility: 0% relative wt %
n-Decane, 37.8° C., relative to 89.6° C.
  Relative solubility: 3% relative wt %
n-Decane, 52.9° C., relative to 89.6° C.
  Relative solubility: 9% relative wt %
n-Decane, 69.5° C., relative to 89.6° C.
  Relative solubility: 27% relative wt %
n-Decane, 79.3° C., relative to 89.6° C.
  Relative solubility: 52% relative wt %
n-Decane, 89.6° C., relative to 89.6° C.
  Relative solubility: 100% relative wt %
n-Heptane, 23.0° C., relative to 69.9° C.
  Relative solubility: 3% relative wt %
n-Heptane, 30.5° C., relative to 69.9° C.
  Relative solubility: 4% relative wt %
n-Heptane, 40.4° C., relative to 69.9° C.
  Relative solubility: 14% relative wt %
n-Heptane, 49.9° C., relative to 69.9° C.
  Relative solubility: 28% relative wt %
n-Heptane, 60.6° C., relative to 69.9° C.
  Relative solubility: 53% relative wt %
n-Heptane, 69.9° C., relative to 69.9° C.
  Relative solubility: 100% relative wt %
